Results are given in words; binding and its absence hold for the method and conditions named. In cells and extracts the contact can be indirect. Some binding calls cover weakened binding; strength is not graded here.
Biological target: PAK1, p21 (RAC1) activated kinase 1 (human (endogenous in OH931, NMFH1 and NMFH2)) (UniProt Q13153)
Test: co-IP; total cell lysates of parent OH931, NMFH1 and NMFH2 cells; anti-PAK1 (Cell Signaling) cross-linked with DMP to Dynabeads Protein G; eluates probed by western blot

By UniProt entry, the sequences of proteins in these tests, tags left out.
UniProt Q13153: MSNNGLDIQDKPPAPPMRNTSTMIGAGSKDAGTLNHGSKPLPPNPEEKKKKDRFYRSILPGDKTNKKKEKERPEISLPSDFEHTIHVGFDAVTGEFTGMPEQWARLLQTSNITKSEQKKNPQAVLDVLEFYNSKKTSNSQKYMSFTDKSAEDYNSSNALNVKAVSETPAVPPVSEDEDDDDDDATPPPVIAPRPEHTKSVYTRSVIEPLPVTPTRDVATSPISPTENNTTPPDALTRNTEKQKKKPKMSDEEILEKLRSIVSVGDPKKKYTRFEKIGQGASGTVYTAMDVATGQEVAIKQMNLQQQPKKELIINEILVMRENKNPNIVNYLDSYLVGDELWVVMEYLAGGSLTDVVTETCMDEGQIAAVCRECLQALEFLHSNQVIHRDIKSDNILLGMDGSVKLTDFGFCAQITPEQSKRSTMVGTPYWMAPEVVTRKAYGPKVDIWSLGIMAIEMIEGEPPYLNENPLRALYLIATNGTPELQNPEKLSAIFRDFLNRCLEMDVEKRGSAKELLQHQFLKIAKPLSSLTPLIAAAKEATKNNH
UniProt P51692: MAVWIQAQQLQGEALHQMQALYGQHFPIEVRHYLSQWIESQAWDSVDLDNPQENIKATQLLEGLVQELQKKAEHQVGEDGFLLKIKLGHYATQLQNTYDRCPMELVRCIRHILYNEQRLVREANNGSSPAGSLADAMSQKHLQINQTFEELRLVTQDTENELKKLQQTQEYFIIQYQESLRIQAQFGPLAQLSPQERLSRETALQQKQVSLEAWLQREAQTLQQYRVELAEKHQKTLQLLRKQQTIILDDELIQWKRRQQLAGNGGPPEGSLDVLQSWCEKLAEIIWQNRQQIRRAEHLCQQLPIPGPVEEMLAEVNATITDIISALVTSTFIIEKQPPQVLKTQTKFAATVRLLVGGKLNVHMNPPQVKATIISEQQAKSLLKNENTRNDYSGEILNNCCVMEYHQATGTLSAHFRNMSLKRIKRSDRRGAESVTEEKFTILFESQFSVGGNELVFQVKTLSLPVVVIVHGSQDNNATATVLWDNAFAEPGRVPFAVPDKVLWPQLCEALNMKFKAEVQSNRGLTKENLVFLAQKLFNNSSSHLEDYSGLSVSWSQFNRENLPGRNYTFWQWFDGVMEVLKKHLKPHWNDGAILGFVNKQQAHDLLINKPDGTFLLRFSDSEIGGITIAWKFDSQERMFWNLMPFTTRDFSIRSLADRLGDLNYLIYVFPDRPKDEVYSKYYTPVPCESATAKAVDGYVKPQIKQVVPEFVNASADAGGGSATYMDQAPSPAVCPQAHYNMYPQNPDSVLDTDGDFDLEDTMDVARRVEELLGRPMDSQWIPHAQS

binding: binds
Substance: STAT5B, signal transducer and activator of transcription 5B (from UniProt P51692 1-787)

Source: paper PMC10411477
